The target in test [1] is T1, MAGED1, human (human (endogenous in HEK293T and SH-SY5Y)) (UniProt Q9Y5V3).
T1 sequence: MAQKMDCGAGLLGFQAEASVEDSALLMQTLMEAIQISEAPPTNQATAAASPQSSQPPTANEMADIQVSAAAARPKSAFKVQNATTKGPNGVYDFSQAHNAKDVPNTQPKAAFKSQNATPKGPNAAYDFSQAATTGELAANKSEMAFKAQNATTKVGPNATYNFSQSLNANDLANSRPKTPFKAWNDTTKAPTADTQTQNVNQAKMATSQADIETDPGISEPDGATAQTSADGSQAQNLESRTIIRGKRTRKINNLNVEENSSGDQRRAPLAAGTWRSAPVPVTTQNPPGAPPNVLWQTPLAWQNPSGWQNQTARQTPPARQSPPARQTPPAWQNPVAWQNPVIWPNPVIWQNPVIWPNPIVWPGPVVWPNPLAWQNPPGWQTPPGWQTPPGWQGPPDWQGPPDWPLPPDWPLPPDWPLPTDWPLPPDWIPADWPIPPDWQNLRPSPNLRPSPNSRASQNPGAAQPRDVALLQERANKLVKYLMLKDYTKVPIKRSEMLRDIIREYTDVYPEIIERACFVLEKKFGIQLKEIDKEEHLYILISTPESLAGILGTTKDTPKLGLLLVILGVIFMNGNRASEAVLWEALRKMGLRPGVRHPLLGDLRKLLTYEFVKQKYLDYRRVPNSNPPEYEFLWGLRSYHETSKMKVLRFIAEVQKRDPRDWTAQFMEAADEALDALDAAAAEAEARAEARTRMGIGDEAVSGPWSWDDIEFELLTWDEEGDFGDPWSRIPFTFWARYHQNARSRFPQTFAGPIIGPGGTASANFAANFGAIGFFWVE
The test is described as follows: affinity purification with mass spectrometry; IP of endogenous MAGED1 from SH-SY5Y lysate (50 mM Tris-HCl pH 7.5, 150 mM NaCl, 1% Triton X-100), protein A agarose, overnight 4 °C; control: rabbit IgG IP; TMT LC-MS/MS.

Amino acid sequences for entries named in this document (tags omitted).
UniProt P16220: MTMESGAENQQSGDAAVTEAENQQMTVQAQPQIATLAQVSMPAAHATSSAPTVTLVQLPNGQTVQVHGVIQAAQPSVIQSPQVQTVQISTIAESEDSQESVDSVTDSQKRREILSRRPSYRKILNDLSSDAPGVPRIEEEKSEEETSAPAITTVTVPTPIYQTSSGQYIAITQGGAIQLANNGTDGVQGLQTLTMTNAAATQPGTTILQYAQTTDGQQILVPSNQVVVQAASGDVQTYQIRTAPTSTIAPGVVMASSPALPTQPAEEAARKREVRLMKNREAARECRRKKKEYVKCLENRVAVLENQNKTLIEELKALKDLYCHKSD
UniProt Q6R891: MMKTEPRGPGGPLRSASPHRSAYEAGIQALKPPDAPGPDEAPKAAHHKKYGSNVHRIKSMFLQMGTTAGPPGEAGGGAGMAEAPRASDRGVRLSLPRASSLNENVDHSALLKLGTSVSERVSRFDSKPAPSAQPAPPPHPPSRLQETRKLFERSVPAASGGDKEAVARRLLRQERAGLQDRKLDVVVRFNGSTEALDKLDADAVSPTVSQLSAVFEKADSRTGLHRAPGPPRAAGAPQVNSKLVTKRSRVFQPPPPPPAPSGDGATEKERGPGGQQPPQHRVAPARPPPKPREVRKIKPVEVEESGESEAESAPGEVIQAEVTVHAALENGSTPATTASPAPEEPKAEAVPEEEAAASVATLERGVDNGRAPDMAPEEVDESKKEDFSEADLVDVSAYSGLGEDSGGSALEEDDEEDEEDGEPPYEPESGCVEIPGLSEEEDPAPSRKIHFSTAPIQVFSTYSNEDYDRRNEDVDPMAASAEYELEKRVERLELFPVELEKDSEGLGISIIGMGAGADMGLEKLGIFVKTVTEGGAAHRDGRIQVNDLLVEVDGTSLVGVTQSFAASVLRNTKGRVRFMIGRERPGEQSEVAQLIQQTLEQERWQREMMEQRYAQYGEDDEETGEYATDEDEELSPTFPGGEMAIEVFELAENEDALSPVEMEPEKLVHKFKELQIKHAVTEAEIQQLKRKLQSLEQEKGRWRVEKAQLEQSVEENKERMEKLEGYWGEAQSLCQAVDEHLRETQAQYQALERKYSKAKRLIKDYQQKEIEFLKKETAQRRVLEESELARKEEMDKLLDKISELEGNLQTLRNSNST
UniProt Q93009: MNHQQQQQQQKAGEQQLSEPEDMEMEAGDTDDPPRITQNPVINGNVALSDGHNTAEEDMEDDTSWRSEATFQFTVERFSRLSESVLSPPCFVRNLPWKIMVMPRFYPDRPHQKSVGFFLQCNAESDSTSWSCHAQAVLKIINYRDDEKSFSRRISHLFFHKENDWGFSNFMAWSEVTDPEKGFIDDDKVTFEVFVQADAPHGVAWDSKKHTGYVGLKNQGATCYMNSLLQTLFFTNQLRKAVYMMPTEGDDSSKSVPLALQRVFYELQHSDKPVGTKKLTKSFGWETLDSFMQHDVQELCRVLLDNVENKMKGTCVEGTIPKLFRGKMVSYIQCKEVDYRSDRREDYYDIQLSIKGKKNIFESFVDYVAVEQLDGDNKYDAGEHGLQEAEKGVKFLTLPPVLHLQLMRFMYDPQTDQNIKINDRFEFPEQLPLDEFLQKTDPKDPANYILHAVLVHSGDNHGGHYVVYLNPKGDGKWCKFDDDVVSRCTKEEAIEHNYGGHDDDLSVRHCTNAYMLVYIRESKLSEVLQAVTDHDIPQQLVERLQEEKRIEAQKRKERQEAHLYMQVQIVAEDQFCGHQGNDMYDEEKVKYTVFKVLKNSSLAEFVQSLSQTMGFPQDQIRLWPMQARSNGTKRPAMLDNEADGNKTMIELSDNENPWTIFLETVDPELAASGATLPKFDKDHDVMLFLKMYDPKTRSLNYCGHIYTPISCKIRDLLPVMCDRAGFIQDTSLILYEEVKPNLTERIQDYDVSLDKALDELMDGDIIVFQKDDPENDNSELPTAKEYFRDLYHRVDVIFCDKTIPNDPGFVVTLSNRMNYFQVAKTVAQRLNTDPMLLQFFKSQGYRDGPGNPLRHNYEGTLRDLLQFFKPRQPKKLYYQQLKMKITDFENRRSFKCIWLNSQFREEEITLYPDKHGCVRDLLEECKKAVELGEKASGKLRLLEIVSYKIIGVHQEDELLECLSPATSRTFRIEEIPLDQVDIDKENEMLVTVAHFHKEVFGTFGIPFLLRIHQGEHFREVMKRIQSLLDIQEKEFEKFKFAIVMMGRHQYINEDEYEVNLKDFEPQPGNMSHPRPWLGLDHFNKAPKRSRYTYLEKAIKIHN
UniProt Q99104: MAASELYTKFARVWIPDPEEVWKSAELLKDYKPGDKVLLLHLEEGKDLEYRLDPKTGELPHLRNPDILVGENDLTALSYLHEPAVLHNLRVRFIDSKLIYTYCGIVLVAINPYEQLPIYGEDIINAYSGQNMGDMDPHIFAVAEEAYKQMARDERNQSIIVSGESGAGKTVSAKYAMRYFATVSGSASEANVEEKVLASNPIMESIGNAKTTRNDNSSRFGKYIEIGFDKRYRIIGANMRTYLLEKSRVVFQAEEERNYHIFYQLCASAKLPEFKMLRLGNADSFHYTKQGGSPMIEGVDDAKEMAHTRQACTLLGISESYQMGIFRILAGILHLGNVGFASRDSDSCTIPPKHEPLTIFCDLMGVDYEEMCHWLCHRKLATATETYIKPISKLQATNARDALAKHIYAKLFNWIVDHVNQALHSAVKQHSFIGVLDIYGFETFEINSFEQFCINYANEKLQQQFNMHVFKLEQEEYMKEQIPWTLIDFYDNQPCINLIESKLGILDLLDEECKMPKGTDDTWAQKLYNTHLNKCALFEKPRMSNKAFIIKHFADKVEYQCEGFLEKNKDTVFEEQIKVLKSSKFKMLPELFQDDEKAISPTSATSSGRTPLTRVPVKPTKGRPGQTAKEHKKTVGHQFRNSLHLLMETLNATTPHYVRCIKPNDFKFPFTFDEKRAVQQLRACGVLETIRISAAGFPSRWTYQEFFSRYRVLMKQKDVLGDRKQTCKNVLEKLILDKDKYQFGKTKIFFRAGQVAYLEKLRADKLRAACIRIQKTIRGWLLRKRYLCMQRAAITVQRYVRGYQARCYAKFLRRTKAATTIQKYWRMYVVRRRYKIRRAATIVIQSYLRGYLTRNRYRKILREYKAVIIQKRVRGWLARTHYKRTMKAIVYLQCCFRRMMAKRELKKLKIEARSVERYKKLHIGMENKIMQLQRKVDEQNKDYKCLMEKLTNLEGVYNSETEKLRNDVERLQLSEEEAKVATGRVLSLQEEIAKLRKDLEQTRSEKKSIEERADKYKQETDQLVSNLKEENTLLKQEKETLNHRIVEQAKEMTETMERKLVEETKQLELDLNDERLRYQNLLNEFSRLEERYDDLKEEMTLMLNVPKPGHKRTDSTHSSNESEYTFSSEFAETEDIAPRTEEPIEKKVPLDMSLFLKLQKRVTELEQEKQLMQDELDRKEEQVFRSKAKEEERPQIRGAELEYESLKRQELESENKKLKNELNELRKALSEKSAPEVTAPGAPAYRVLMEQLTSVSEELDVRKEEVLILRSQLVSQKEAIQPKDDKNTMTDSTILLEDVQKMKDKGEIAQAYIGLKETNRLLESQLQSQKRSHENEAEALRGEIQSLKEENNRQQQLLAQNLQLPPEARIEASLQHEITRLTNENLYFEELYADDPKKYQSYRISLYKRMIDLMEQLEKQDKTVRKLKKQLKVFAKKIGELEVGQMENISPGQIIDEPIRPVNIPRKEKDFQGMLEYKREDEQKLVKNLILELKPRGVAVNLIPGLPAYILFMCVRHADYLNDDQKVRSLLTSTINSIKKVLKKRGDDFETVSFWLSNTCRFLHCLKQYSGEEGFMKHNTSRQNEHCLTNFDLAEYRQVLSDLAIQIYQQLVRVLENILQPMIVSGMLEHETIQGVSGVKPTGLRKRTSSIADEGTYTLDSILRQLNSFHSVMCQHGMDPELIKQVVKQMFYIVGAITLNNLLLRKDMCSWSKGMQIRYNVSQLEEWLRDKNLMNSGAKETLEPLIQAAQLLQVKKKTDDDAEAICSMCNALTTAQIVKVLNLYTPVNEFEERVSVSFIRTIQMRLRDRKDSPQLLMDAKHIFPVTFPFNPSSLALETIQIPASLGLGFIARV
UniProt O88569: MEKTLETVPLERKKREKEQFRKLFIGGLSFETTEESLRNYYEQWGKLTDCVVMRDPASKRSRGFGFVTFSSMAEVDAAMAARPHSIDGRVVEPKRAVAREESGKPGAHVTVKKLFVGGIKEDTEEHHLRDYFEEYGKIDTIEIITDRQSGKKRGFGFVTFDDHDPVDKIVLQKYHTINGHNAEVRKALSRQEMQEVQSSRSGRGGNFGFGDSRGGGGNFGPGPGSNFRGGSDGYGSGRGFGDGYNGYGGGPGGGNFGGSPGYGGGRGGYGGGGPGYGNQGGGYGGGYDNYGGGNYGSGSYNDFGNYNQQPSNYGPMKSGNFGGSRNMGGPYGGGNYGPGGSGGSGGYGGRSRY

For test [2], the target named is T2, melanoma-associated antigen D1 (Maged1), mouse (mouse (endogenous in thalamus)) (UniProt Q9QYH6).
T2 sequence: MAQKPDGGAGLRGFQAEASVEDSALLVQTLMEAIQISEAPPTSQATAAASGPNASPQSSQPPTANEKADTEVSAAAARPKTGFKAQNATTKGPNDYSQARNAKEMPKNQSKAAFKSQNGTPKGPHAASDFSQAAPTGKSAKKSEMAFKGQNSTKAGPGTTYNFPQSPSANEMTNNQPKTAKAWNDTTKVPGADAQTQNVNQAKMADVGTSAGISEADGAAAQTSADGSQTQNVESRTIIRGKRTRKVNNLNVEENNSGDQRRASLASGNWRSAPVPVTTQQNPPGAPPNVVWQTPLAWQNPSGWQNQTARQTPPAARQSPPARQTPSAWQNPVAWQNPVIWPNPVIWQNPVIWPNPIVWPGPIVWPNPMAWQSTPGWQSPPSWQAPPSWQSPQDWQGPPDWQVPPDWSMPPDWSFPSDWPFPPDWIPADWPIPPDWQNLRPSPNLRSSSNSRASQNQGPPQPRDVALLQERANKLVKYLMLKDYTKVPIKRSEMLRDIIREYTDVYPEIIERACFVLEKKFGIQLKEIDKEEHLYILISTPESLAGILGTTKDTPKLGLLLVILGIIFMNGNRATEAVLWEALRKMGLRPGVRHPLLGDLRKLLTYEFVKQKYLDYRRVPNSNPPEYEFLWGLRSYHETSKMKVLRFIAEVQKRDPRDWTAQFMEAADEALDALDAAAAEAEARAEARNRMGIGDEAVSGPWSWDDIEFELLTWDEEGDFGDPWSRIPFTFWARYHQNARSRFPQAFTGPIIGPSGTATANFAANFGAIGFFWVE
The test is described as follows: affinity purification with mass spectrometry; anti-Maged1 antibody on Dynabeads Protein A, 500 ug thalamus lysate supernatant (50 mM Tris HCl pH 8.0, 150 mM NaCl, 1 mM EDTA, 0.5 % NP-40), overnight 4 °C; saline- and cocaine-treated control mice and cocaine-treated Maged1-cKO mice; LC-MS/MS.

In test [3] the target is T1, MAGED1, human (human (endogenous in HEK293T and SH-SY5Y)). The test is described as follows: affinity purification with mass spectrometry; IP of endogenous MAGED1 from HEK293T lysate (50 mM Tris-HCl pH 7.5, 150 mM NaCl, 1% Triton X-100), protein A agarose, overnight 4 °C; control: MAGED1 KO HEK293T (C1); TMT LC-MS/MS.

Results are given in words; binding and its absence hold for the method and conditions named. Binding seen in cells or lysates may run through a third protein. Here binding means that the protein was enriched with, or labelled near, the bait; the list need not be complete.

As for CREB, human (from UniProt P16220 1-327), the binding result in test [1] is “binds”.
As for Neb1, mouse, the binding entry in test [2] is on record as “binds”.
Same read-out and setting: to Neb2, mouse (from UniProt Q6R891 1-817) belongs “binds”.
Regarding “USP7, human (from UniProt Q93009 1-1102) (enzyme)”, the binding result in test [1] and in test [3] was “binds” each time.
Turning to “Myo5a, mouse (from UniProt Q99104 1-1853)”, the binding result in test [2] is “binds”.
As for “hnRNPA2/B1, mouse (from UniProt O88569 1-353)”, in test [2], the binding entry is recorded as “binds”.

B1: Dbn1, mouse (protein, UniProt Q9QXS6 1-706)
chain: MAGVSFSGHRLELLAAYEEVIREESAADWALYTYEDGSDDLKLAASGEGGLQELSGHFENQKVMYGFCSVKDSQAALPKYVLINWVGEDVPDARKCACASHVAKVAEFFQGVDVIVNASSVEDIDAGAIGQRLSNGLARLSSPVLHRLRLREDENAEPVGTTYQKTDAAVEMKRINREQFWEQAKKEEELRKEEERKKALDARLRFEQERMEQERQEQEERERRYREREQQIEEHRRKQQSLEAEEAKRRLKEQSIFGDQRDEEEESQMKKSESEVEEAAAIIAQRPDNPREFFRQQERVASASGGSCDAPAPAPFNHRPGRPYCPFIKASDSGPSSSSSSSSSPPRTPFPYITCHRTPNLSSSLPCSHLDSHRRMAPTPIPTRSPSDSSTASTPIAEQIERALDEVTSSQPPPPPPPPPPTQEAQETTPSLDEELSKEAKVTAAPEVWAGCAAEPPQAQEPPLLQSSPLEDSMCTESPEQAALAAPAEPAASVTSVADVHAADTIETTTATTDTTIANNVTPAAASLIDLWPGNGEEASTLQAEPRVPTPPSGAEASLAEVPLLNEAAQEPLPPVGEGCANLLNFDELPEPPATFCDPEEEVGETLAASQVLTMPSALEEVDQVLEQELEPEPHLLTNGETTQKEGTQASEGYFSQSQEEEFAQSEEPCAKVPPPVFYNKPPEIDITCWDADPVPEEEEGFEGGD
As for B1, the binding entry in test [2] is on record as “binds”.

B2: Praja1, mouse (protein, UniProt O55176 1-578)
chain: MSHQERIASQRRTTAEVPMHRSTANQSKRSRSPFASTRRRWDDSESSGASLAVESEDYSRYPPREYRASGSRRGLAYGHIDTVVARDSEEEGAGPVDRLPVRGKAGKFKDDPEKGARSSRFTSVNHDAKEECGKVESPPAARCSARRAELSKQNGSSASQISSAEGRAAAKGNNSLERERQNLPARPSRAPVSICGGGENTPKSAEEPVVRPKVRNVATPNCMKPKVFFDTDDDDDVPHSTSRWRDAADAEEAHAEGLARRGRGEAASSSEPRYAEDQDARSEQAKADKVPRRRRTMADPDFWAYTDDYYRYYEEDSDSDKEWMAALRRKYRSREQPQSSSGESWELLPGKEELERQQAGAGSLASAGSNGSGYPEEVQDPSLQEEEQASLEEGEIPWLRYNENESSSEGDNESTHELIQPGMFMLDGNNNLEDDSSVSEDLEVDWSLFDGFADGLGVAEAISYVDPQFLTYMALEERLAQAMETALAHLESLAVDVEVANPPASKESIDALPEILVTEDHGAVGQEMCCPICCSEYVKGEVATELPCHHYFHKPCVSIWLQKSGTCPVCRCMFPPPL
Regarding B2, the binding entry in test [2] is on record as “binds”.

B3: MYSM1, human (enzyme, UniProt Q5VVJ2 1-828)
chain: MAAEEADVDIEGDVVAAAGAQPGSGENTASVLQKDHYLDSSWRTENGLIPWTLDNTISEENRAVIEKMLLEEEYYLSKKSQPEKVWLDQKEDDKKYMKSLQKTAKIMVHSPTKPASYSVKWTIEEKELFEQGLAKFGRRWTKISKLIGSRTVLQVKSYARQYFKNKVKCGLDKETPNQKTGHNLQVKNEDKGTKAWTPSCLRGRADPNLNAVKIEKLSDDEEVDITDEVDELSSQTPQKNSSSDLLLDFPNSKMHETNQGEFITSDSQEALFSKSSRGCLQNEKQDETLSSSEITLWTEKQSNGDKKSIELNDQKFNELIKNCNKHDGRGIIVDARQLPSPEPCEIQKNLNDNEMLFHSCQMVEESHEEEELKPPEQEIEIDRNIIQEEEKQAIPEFFEGRQAKTPERYLKIRNYILDQWEICKPKYLNKTSVRPGLKNCGDVNCIGRIHTYLELIGAINFGCEQAVYNRPQTVDKVRIRDRKDAVEAYQLAQRLQSMRTRRRRVRDPWGNWCDAKDLEGQTFEHLSAEELAKRREEEKGRPVKSLKVPRPTKSSFDPFQLIPCNFFSEEKQEPFQVKVASEALLIMDLHAHVSMAEVIGLLGGRYSEVDKVVEVCAAEPCNSLSTGLQCEMDPVSQTQASETLAVRGFSVIGWYHSHPAFDPNPSLRDIDTQAKYQSYFSRGGAKFIGMIVSPYNRNNPLPYSQITCLVISEEISPDGSYRLPYKFEVQQMLEEPQWGLVFEKTRWIIEKYRLSHSSVPMDKIFRRDSDLTCLQKLLECMRKTLSKVTNCFMAEEFLTEIENLFLSNYKSNQENGVTEENCTKELLM
Turning to B3, the binding result in test [1] was “binds”.

Source of the values: paper PMC10733359.
